Measurements reported in PubChem BioAssay AID504786 (Drosophila RNAi Screening Center, 2011)
In all, the deposit lists about 21,000 reagents; shown is a random part of those with a known target gene and a result. 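Primary screen; positive scores mean lost reporter signal, so the sign may be inverted from the usual convention.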 The numbers tell different reagents against one gene apart. Names joined by + are all predicted targets of the reagent. Further read-outs or replicates are left out here. Reagent sequences are not shown.

Screen: 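Fly genes required for HIF-dependent transcription when hypoxia is mimicked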 (primary screen)
Cells: Drosophila S2 cells with a stable HIF luciferase reporter
Reagent: long dsRNA against Drosophila genes, about 0.2 µg dsRNA per well of a 384-well plate
Timing: three days of knock-down, then 20 h of DFO before reading
Challenge: desferrioxamine (DFO) at 100 µM, an iron chelator that mimics hypoxia, for 20 h
Measured: 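Firefly luciferase driven by the mouse ldh-a hypoxia-response element, measured after 20 h of 100 µM DFO; z-scores per plate, higher means more signal lost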
Reading the numbers: z-score: higher = stronger loss of HIF reporter signal

After knock-down of CG13217, the record shows z-score, replicate 1 = -0.2.
After knock-down of alpha-Est4aPsi (pseudo) the results were z-score, replicate 1 = -0.2.
Knock-down of asf1 (anti-silencing factor 1) came out at: z-score, replicate 1 = -0.5.
Depletion of CG10516 gave: z-score, replicate 1 = -0.2.
For CG5555, the values are z-score, replicate 1 = 0.1.
For CG16772 the deposit lists z-score, replicate 1 = -0.3.
For CG18598 the deposit lists z-score, replicate 1 = -0.5.
For Duba (Deubiquitinating enzyme A), the values are z-score, replicate 1 = -0.1.
Silencing of 14-3-3zeta gave: z-score, replicate 1 = -0.2.
For CCAP (Crustacean cardioactive peptide), the entry reads z-score, replicate 1 = -0.1.
With knock-down of Aplip1 (APPL-interacting protein 1) #1, the screen gave z-score, replicate 1 = -0.2.
Aplip1 (APPL-interacting protein 1) #2 scored z-score, replicate 1 = -0.3.
GluRIIE (Glutamate receptor IIE) showed z-score, replicate 1 = -0.6.
With knock-down of mgl (Megalin) #1 the results were z-score, replicate 1 = -0.3.
After knock-down of mgl (Megalin) #2, the record shows z-score, replicate 1 = -0.4.
After knock-down of mgl (Megalin) #3 the results were z-score, replicate 1 = -0.5.
Silencing of mgl (Megalin) #4 came out at: z-score, replicate 1 = -0.4.
For futsch #1, the entry reads z-score, replicate 1 = -0.2.
Depletion of futsch #2 came out at: z-score, replicate 1 = -0.3.
Knock-down of futsch #3 gave: z-score, replicate 1 = -0.2.
Against futsch #4 the deposit lists z-score, replicate 1 = -0.2.
Knock-down of CG34050 (retired record) came out at: z-score, replicate 1 = 4.4.
Knock-down of CG17803 gave: z-score, replicate 1 = -0.5.
For Mkp3 (Mitogen-activated protein kinase phosphatase 3) #1, the values are z-score, replicate 1 = -0.3.
For Mkp3 (Mitogen-activated protein kinase phosphatase 3) #2, the values are z-score, replicate 1 = -0.2.
After knock-down of CG42306 + Gint3 the results were z-score, replicate 1 = -0.2.
With knock-down of CG31760 the results were z-score, replicate 1 = -0.2.
For Cad89D (Cadherin 89D) the deposit lists z-score, replicate 1 = -0.3.

Look-ups from above.
For “z-score, replicate 1”, GluRIIE (Glutamate receptor IIE) shows -0.6
Under “z-score, replicate 1”, alpha-Est4aPsi (pseudo) shows -0.2
Aplip1 (APPL-interacting protein 1) #1, z-score, replicate 1 → -0.2
Value of CG16772 under “z-score, replicate 1”: -0.3
mgl (Megalin) #3, z-score, replicate 1: -0.5
mgl (Megalin) #4, z-score, replicate 1 → -0.4

Additional reagents follow.
After knock-down of cona (corona), the screen gave z-score, replicate 1 = -1.
Silencing of Orco (Odorant receptor co-receptor) gave: z-score, replicate 1 = -0.3.
CG14860 showed z-score, replicate 1 = -0.4.
After knock-down of Mtp (Microsomal triacylglycerol transfer protein), the screen gave z-score, replicate 1 = -0.3.
For dap (dacapo), the entry reads z-score, replicate 1 = -0.5.
Depletion of SNF4Agamma (SNF4/AMP-activated protein kinase gamma subunit) #1 resulted in: z-score, replicate 1 = -0.6.
Depletion of SNF4Agamma (SNF4/AMP-activated protein kinase gamma subunit) #2 gave: z-score, replicate 1 = -0.2.
Silencing of SNF4Agamma (SNF4/AMP-activated protein kinase gamma subunit) #3 resulted in: z-score, replicate 1 = 0.7.
Depletion of SNF4Agamma (SNF4/AMP-activated protein kinase gamma subunit) #4 resulted in: z-score, replicate 1 = -0.5.
Knock-down of CG10462 resulted in: z-score, replicate 1 = -0.5.
With knock-down of CG13699, the record shows z-score, replicate 1 = -0.2.
Silencing of CG3566 resulted in: z-score, replicate 1 = -0.2.
Against dpr17 (defective proboscis extension response 17) #1, the values are z-score, replicate 1 = 0.2.
With knock-down of dpr17 (defective proboscis extension response 17) #2, the record shows z-score, replicate 1 = 1.7.
Against dpr17 (defective proboscis extension response 17) #3, the values are z-score, replicate 1 = -0.5.
Corp (Companion of reaper) gave z-score, replicate 1 = -0.3.
Atg4b (Autophagy-related 4b) gave z-score, replicate 1 = -0.4.
After knock-down of RpL18 (Ribosomal protein L18), the record shows z-score, replicate 1 = -0.1.
After knock-down of CG8664 the results were z-score, replicate 1 = 0.3.
Hr38 (Hormone receptor-like in 38) gave z-score, replicate 1 = 0.
Depletion of CG6073 resulted in: z-score, replicate 1 = -0.3.
After knock-down of CG10311 the results were z-score, replicate 1 = -0.3.
Depletion of PIG-K (Phosphatidylinositol glycan anchor biosynthesis class K) gave: z-score, replicate 1 = -0.3.
